Results are given in words; binding and its absence hold for the method and conditions named. Binding can be weak; no strength is given.
Key:
[1] = target: murine rBAT (purified with b^0,+AT) (murine) (UniProt Q91WV7); test: SDS-PAGE under non-reducing and reducing conditions
[2] = target: ovine rBAT V355C with N-terminal EGFP (HeLa) (ovine); test: non-reducing SDS-PAGE with dual-colour in-gel fluorescence
[3] = target: ovine rBAT V355C/D349R/D359R with N-terminal EGFP (HeLa) (ovine); test: as above
[4] = target: ovine rBAT V355C/R362D/R326D with N-terminal EGFP (HeLa) (ovine); test: as above

Sequences of proteins named here, by UniProt entry; tags and fusion partners are left off. A change or cut given only in a name is not applied to a line headed by its entry.
UniProt Q91WV7: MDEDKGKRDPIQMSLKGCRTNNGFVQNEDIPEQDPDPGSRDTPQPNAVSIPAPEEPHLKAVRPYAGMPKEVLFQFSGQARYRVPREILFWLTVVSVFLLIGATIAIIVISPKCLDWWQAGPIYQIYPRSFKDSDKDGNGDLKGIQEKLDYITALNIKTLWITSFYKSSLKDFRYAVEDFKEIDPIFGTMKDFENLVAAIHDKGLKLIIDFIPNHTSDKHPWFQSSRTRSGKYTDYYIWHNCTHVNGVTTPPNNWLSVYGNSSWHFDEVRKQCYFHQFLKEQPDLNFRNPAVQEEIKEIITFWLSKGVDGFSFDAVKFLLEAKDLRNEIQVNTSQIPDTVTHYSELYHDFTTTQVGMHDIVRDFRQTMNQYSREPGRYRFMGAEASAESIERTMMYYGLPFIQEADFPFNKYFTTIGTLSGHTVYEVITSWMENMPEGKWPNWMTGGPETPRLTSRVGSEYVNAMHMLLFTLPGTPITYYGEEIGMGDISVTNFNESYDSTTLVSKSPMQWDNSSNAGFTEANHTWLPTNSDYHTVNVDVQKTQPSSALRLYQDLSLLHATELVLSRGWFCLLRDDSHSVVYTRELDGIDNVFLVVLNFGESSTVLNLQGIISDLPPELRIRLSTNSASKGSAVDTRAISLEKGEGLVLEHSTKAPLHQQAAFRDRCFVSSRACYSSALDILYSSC
UniProt Q9QXA6: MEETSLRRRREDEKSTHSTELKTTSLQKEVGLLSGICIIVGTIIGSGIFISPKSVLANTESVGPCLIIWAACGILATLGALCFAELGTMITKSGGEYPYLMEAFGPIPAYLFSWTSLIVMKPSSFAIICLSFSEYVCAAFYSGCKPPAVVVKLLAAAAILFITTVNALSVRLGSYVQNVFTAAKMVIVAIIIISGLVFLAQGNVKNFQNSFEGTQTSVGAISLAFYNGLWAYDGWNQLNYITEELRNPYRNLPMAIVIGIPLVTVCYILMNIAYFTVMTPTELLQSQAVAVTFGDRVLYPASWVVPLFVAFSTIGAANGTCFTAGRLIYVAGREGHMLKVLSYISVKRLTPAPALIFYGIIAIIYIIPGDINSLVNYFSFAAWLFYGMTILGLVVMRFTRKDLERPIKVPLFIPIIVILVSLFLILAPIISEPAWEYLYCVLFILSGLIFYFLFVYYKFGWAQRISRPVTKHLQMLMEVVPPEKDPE

binding [1] | binding [2] | binding [3] | binding [4] | Substance
binds | – | – | – | murine b^0,+AT (purified with rBAT) (from UniProt Q9QXA6)
– | binds | binds | binds | ovine b^0,+AT with C-terminal TwinStrep II and mCherry (HeLa) (from UniProt A0ACI6QX61 1-487)
